Data reported in publication PMC12043042 (Chemistry (Weinheim an Der Bergstrasse, Germany), 2025).
HELM strings list residues between dots; [ac] is acetyl, [am] amide, other brackets name non-standard units.

Test: general procedure: Fmoc solid-phase peptide synthesis; 2′-Cl-TrtCl polystyrene resin (1.1 mmol/g); HCTU/DIPEA
Conditions: whole synthesis; for isolated yield: overall, based on 100 % resin loading, scale of the general procedure 0.1 mmol

| Substance | isolated mass | isolated yield |
| --- | --- | --- |
| PEPTIDE1{G.F.[BB1].P.A}$PEPTIDE1,PEPTIDE1,1:R1-5:R2$$$V2.0 | 14.6 mg | 28% |
| PEPTIDE1{G.F.[BB3].P.A}$PEPTIDE1,PEPTIDE1,1:R1-5:R2$$$V2.0 | 11.5 mg | 21% |
| PEPTIDE1{G.F.[BB1].I.A}$PEPTIDE1,PEPTIDE1,1:R1-5:R2$$$V2.0 | 13.4 mg | 25% |
| PEPTIDE1{G.F.G.G.I.A}$PEPTIDE1,PEPTIDE1,1:R1-6:R2$$$V2.0 | 15.6 mg | 30% |
| PEPTIDE1{G.F.G.G.P.A}$PEPTIDE1,PEPTIDE1,1:R1-6:R2$$$V2.0 | 18.5 mg | 38% |
| PEPTIDE1{G.F.[3Amb].I.A}$PEPTIDE1,PEPTIDE1,1:R1-5:R2$$$V2.0 | 16.7 mg | 32% |
| PEPTIDE1{G.F.[BB3].I.A}$PEPTIDE1,PEPTIDE1,1:R1-5:R2$$$V2.0 | 9.6 mg | 17% |
| PEPTIDE1{G.F.[3Amb].P.A}$PEPTIDE1,PEPTIDE1,1:R1-5:R2$$$V2.0 | 20.2 mg | 40% |
